Laboratory results reported in article PMC3762332.

The chains behind the UniProt entries cited, without tags or fusion partners. Where a name states a change or a piece, a line headed by the entry shows the natural chain unless it says otherwise.
UniProt Q8IW36: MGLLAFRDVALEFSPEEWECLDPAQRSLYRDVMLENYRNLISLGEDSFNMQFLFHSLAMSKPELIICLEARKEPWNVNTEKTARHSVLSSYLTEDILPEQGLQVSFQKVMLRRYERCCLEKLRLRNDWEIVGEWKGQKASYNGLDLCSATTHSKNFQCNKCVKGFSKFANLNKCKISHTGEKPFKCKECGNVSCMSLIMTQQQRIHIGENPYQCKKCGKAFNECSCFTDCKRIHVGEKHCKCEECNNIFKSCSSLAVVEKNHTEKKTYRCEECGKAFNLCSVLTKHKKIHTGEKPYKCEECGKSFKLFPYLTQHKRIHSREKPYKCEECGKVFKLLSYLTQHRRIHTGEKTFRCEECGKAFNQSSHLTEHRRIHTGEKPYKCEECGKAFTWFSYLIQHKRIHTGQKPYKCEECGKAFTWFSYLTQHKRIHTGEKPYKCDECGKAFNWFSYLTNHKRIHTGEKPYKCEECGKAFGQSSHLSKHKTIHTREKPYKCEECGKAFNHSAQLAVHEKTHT
UniProt Q15583: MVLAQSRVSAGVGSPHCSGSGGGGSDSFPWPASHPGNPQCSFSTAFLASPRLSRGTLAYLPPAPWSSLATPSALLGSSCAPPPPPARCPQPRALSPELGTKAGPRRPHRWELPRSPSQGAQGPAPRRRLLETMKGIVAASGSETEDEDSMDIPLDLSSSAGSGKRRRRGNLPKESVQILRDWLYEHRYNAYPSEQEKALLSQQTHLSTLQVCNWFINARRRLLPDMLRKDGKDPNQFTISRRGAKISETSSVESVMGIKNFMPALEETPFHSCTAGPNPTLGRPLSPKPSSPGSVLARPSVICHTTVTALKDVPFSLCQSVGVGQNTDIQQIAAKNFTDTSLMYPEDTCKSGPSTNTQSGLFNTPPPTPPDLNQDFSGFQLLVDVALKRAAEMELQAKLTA
UniProt Q8NC26: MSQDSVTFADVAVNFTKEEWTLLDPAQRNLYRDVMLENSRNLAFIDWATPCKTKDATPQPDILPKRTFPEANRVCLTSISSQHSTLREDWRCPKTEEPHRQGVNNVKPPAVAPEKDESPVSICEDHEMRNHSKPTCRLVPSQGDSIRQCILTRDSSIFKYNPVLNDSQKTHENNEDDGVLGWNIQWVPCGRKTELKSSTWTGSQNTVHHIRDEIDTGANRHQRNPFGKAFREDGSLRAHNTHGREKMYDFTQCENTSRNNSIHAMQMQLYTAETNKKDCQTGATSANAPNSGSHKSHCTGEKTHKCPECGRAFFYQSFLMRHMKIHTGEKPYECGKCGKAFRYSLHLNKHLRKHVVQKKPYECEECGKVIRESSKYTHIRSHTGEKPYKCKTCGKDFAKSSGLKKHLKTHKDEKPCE
UniProt Q9BWM5: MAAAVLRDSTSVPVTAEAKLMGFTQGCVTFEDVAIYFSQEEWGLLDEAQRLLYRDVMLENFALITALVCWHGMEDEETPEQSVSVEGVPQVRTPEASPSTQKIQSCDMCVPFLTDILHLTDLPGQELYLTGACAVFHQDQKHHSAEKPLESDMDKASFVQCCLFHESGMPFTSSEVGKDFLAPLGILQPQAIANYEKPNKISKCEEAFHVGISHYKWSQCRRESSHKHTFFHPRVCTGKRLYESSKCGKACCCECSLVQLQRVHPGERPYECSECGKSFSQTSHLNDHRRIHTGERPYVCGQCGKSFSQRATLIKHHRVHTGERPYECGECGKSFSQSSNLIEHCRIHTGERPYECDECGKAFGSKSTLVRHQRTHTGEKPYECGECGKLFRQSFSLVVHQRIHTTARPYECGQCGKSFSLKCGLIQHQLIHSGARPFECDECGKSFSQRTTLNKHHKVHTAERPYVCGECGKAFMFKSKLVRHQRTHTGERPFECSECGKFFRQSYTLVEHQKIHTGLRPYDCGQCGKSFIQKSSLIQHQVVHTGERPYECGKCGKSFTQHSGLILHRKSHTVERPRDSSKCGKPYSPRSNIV
UniProt P37231: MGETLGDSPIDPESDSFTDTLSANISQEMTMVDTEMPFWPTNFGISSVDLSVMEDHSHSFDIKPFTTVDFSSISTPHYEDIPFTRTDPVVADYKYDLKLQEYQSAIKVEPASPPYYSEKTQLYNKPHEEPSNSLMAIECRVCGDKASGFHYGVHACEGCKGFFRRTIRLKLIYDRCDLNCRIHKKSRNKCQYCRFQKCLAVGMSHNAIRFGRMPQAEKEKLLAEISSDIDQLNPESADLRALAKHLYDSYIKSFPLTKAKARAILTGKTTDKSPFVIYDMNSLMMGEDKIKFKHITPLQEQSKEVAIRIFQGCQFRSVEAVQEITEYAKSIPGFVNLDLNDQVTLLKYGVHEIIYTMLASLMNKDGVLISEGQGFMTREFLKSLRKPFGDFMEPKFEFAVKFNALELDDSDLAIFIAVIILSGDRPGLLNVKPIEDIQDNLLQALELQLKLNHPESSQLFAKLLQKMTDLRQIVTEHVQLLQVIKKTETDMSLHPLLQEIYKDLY
UniProt P20719: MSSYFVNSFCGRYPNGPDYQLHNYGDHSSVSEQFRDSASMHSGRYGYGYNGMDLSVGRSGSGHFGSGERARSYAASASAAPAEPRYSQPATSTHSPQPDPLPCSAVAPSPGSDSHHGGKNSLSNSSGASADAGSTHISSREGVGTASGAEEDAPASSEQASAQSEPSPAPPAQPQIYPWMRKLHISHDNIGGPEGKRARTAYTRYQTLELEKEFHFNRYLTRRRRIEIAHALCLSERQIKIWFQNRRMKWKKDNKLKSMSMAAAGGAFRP
UniProt Q9Y2L8: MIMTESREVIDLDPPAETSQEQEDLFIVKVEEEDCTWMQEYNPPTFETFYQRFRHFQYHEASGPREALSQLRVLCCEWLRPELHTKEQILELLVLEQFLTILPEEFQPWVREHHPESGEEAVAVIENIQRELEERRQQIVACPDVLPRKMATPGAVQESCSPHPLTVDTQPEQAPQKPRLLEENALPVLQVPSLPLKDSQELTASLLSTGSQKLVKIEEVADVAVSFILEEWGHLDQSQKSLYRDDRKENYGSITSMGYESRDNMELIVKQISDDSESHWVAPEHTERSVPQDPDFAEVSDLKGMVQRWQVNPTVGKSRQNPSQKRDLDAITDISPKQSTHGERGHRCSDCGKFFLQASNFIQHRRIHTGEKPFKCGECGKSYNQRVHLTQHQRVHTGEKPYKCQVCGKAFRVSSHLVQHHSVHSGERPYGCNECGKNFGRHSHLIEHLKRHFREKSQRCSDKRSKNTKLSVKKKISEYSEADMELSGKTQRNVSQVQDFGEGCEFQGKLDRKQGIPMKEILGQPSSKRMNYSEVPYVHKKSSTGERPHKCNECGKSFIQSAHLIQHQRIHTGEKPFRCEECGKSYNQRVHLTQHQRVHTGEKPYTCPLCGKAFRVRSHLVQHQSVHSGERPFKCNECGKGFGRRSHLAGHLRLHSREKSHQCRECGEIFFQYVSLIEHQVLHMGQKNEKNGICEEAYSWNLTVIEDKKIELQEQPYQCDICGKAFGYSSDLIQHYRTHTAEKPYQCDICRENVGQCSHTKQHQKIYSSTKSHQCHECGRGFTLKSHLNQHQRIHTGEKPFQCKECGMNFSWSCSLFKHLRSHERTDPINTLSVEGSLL
UniProt P05549: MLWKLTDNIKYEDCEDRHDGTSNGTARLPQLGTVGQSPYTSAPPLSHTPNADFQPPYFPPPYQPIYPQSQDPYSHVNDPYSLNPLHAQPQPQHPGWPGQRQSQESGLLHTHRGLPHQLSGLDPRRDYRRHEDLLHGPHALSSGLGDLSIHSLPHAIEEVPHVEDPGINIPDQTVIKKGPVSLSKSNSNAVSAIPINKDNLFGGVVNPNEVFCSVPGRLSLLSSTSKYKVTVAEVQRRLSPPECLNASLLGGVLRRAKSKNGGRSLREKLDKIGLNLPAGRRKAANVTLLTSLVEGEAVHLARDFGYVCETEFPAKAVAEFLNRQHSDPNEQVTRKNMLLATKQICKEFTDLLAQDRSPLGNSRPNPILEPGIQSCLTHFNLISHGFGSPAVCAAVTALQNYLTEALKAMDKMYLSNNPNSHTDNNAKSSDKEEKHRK
UniProt O00716: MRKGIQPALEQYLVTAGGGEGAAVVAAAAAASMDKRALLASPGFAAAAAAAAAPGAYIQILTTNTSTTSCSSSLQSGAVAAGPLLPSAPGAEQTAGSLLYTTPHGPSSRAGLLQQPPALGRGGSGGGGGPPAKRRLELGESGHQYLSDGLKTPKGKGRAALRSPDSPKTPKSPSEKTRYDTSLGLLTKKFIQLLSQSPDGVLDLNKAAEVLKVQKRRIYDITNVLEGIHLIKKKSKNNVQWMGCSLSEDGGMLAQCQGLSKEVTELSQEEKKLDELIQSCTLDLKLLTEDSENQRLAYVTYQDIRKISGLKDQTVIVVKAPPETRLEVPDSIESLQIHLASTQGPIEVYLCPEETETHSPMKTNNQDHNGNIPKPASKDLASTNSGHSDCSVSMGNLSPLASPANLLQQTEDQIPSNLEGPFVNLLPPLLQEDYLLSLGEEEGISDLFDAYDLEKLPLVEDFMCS
UniProt P43694: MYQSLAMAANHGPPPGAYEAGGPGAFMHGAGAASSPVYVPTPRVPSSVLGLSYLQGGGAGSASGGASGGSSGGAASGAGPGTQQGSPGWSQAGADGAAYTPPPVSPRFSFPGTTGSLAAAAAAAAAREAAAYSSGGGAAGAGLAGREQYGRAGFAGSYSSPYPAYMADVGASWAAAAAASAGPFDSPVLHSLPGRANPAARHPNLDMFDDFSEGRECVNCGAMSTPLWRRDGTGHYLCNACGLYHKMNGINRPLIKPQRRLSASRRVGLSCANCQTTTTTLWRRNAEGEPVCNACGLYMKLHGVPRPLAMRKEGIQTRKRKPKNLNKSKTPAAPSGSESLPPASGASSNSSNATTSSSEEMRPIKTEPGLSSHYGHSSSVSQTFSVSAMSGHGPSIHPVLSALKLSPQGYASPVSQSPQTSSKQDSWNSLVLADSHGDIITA
UniProt P19793: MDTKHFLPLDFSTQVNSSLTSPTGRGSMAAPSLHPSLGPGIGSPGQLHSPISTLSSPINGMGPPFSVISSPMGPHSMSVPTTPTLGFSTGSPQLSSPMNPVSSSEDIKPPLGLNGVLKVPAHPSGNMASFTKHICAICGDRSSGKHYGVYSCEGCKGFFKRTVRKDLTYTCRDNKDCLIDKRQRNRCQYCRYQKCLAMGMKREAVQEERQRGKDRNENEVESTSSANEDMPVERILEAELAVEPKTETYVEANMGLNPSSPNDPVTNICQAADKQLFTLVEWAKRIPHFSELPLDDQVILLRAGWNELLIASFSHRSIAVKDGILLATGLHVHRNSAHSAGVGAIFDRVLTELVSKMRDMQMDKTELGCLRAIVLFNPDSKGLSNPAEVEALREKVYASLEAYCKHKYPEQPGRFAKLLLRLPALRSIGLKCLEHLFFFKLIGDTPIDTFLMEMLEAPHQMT

Legend:
Assay in all cases: protein microarray
Details in all cases: 10-fold cold unmethylated competitor; 5mC at CpG (SssI, both strands); recombinant protein; protein details: GST (N-terminal); label: Cy5
[1] = target: ZNF695 (Homo sapiens) (UniProt Q8IW36)
[2] = target: TGIF1 (Homo sapiens) (UniProt Q15583)
[3] = target: ZNF114 (Homo sapiens) (UniProt Q8NC26)
[4] = target: ZNF416 (Homo sapiens) (UniProt Q9BWM5)
[5] = target: T1, SCAPER (Homo sapiens) (UniProt Q9BY12)
T1 sequence (looked up, limits assumed): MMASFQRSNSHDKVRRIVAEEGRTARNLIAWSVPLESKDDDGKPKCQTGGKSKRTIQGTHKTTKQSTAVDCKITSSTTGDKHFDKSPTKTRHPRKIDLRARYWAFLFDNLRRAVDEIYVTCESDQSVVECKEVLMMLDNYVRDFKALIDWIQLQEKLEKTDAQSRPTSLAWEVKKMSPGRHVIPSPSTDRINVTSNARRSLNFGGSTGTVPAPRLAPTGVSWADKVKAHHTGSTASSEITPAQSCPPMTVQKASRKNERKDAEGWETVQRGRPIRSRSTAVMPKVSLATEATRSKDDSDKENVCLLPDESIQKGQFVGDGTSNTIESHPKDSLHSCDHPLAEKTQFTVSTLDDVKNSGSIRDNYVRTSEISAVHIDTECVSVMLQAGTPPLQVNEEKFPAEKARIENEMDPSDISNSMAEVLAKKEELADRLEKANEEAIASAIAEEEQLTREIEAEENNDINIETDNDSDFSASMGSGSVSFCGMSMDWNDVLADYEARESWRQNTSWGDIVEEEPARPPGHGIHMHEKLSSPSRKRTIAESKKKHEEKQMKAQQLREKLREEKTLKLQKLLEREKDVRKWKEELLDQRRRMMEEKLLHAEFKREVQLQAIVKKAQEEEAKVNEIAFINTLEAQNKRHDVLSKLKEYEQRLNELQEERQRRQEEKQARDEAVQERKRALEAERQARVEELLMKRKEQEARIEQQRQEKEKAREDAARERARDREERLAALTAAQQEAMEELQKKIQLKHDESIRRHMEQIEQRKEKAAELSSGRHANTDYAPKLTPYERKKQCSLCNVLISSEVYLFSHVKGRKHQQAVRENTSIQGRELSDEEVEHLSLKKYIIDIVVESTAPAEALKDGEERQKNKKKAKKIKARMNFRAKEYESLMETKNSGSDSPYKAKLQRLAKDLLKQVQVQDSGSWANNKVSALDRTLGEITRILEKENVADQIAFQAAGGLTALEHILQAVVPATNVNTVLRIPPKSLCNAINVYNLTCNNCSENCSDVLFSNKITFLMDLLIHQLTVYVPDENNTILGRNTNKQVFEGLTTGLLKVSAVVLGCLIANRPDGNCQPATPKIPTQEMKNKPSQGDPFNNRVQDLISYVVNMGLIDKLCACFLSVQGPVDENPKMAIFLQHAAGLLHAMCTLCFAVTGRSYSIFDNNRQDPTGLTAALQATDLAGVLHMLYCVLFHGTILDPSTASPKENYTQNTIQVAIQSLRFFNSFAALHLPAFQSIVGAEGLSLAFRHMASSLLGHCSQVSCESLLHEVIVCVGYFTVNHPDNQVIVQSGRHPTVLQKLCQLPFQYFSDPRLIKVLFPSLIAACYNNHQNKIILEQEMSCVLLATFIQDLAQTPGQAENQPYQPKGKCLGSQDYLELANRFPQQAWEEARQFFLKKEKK

[6] = target: PPARG (Homo sapiens) (UniProt P37231)
[7] = target: HOXA5 (Homo sapiens) (UniProt P20719)
[8] = target: ZKSCAN5 (Homo sapiens) (UniProt Q9Y2L8)
[9] = target: T2, RNF138 (Homo sapiens) (UniProt Q8WVD3)
T2 sequence (looked up, limits assumed): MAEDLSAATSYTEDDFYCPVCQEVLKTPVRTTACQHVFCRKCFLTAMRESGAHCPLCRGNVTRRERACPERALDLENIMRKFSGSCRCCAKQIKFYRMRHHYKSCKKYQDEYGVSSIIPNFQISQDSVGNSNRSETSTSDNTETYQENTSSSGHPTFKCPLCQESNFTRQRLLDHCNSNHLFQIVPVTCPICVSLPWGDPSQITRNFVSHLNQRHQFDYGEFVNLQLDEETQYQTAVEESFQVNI

[10] = target: TFAP2A (Homo sapiens) (UniProt P05549)
[11] = target: E2F3 (Homo sapiens) (UniProt O00716)
[12] = target: GATA4 (Homo sapiens) (UniProt P43694)
[13] = target: T3, ZCCHC7 (Homo sapiens) (UniProt Q8N3Z6)
T3 sequence (looked up, limits assumed): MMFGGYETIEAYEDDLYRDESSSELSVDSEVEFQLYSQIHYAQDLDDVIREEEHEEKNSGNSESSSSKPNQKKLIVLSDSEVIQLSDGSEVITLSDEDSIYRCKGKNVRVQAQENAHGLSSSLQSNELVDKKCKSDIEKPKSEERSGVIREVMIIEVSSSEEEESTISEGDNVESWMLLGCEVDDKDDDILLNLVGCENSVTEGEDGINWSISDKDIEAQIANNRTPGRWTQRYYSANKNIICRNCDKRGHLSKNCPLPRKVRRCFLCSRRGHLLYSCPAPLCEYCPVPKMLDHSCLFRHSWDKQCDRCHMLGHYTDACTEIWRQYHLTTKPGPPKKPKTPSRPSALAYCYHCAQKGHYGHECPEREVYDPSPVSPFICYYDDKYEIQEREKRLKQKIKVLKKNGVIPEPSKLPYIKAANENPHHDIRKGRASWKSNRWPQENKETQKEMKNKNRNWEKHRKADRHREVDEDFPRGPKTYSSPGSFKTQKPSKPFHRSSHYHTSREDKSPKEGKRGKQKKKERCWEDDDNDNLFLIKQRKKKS

[14] = target: RXRA (Homo sapiens) (UniProt P19793)

Measured: binding result

GCAACGTGTTTTGCAACGTGTCCCTATAGTGAGTGCTATTA (double strand) [M392]
binds: [1] | [2] | [3] | [4]

TGACGGTACAGAAATGACGGTACAGCCCTATAGTGAGTGCTATTA (double strand) [M382]
binds: [5] | [1] | [3] | [6] | [7] | [8] | [4] | [9]

CGCCTGCGGAAAACGCCTGCGGACCCTATAGTGAGTGCTATTA (double strand) [M28]
binds: [2] | [7]

TAGCGCAATCCCTAGCGCAATCCCTATAGTGAGTGCTATTA (double strand) [M272]
binds: [1] | [10] | [3] | [11] | [8] | [4]

CACGTGAAACACGTGCCCTATAGTGAGTGCTATTA (double strand) [M35]
binds: [5] | [1] | [12] | [2] | [3] | [7] | [11] | [4] | [13] | [9]

CGCATGCGCAAACGCATGCGCCCCTATAGTGAGTGCTATTA (double strand) [M62]
binds: [5] | [2] | [3]

GCAACGGAGAAAGCAACGGAGCCCTATAGTGAGTGCTATTA (double strand) [M271]
binds: [1] | [10] | [12] | [3] | [6] | [8] | [4]

CCCGTACTGAAACCCGTACTGCCCTATAGTGAGTGCTATTA (double strand) [M262]
binds: [5] | [1] | [10] | [3] | [6] | [11] | [8] | [4]

GGCCACGTCAAAGGCCACGTCCCCTATAGTGAGTGCTATTA (double strand) [M288]
binds: [5] | [14] | [1] | [12] | [3] | [6] | [11] | [8] | [4]

GTCGTCGGCTTTGTCGTCGGCCCCTATAGTGAGTGCTATTA (double strand) [M400]
binds: [5] | [2] | [3] | [7] | [4] | [9]

CGTTTCCGTTTCGTTTCCGCCCTATAGTGAGTGCTATTA (double strand) [M328]
binds: [2] | [3]

TAGCTACGACCCTAGCTACGACCCTATAGTGAGTGCTATTA (double strand) [M261]
binds: [1] | [10] | [12] | [3] | [11] | [8] | [4]

CTGATTTCCCCGAAATGACGGAAACTGATTTCCCCGAAATGACGGCCCTATAGTGAGTGCTATTA (double strand) [M51]
binds: [5] | [14] | [3] | [7] | [8]

GCTCGGTATTTGCTCGGTACCCTATAGTGAGTGCTATTA (double strand) [M453]
binds: [5] | [14] | [12] | [2] | [3] | [7] | [11] | [4] | [9]

GCATGGCGGAAAGCATGGCGGCCCTATAGTGAGTGCTATTA (double strand) [M282]
binds: [1] | [10] | [12] | [3] | [11] | [8] | [4]

The exact form of at least one protein or probe is not confirmed. For part of these data: Tags and fusion partners may be left off the protein sequences shown.
